Here are results for 59 compounds from PubChem BioAssay AID2685 (National Center for Advancing Translational Sciences (NCATS), 2010).

Broadly, the AC50 is the concentration giving half of the maximal activity seen.

Some of the results follow. The main result of the screen is listed elsewhere. These columns were measured beside it and carry no call. The list favours compounds with an active or inconclusive main result. The note in brackets gives the kind of curve behind each potency; many fits are weak.

The test can be described thus: qHTS Assay for Lipid Storage Modulators in Drosophila S3 Cells.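 On cell number change: cells counted by Cell Tracker Red CMTPX staining in the red channel.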 Conditions: BODIPY lipid droplet fluorescence, 18-24 h; for cell number change: measured here: cell count max response, cells fed with added oleic acid. An outline of the steps:
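Drosophila S3 cells got compounds at several concentrations plus oleic acid (400 uM solution). Laser-scanning cytometry with 488 nm excitation read lipid droplets at 500-530 nm and cells at 575-640 nm. Percent activity was relative to 20 uM Triacsin C.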
Background: In qHTS, concentration-response curves come from the screen itself.

Setting [1] is: measured here: cell number channel AC50, cells fed with added oleic acid.
Where [2] appears, read: measured here: lipid fluorescence (Fed channel) AC50, cells fed with added oleic acid.

On to `Cc1ccc(S(=O)(=O)N2CCN(c3nc4ccccc4nc3-n3nc(C)cc3C)CC2)cc1`, for which the cell number change is -1.19%. In the case of `Cc1cc(Cl)ccc1OCCCC(=O)NCC1CCCO1` (stereo not drawn), the cell number change is 39.8%. Further, the AC50 under setting [1] was 5.8 µM [rising, full curve, poor fit]. Consider `O=C(NCc1ccc2[nH]c3c(c2c1)CCCC3)c1ccc(S(=O)(=O)N2CCCC2)cc1`, for which the cell number change was -6.7%. For the same compound, the AC50 under setting [2] was 7.31 µM [falling, partial curve, poor fit]. `O=C(CCc1c[nH]c2ccccc12)Nc1ccc(S(=O)(=O)Nc2ncccn2)cc1`: the cell number change was -34.4%. The AC50 under setting [1] was 0.103 µM [falling, full curve, poor fit]. Further, the AC50 under setting [2] was 23.1 µM [falling, single point]. With `Cc1ccc(S(=O)(=O)NC(C)C(c2cccs2)N2CCOCC2)cc1` (stereo not drawn), the cell number change stood at 9.25%. Also, under setting [2], the AC50 was 1.46 µM [rising, full curve, poor fit]. `O=C(c1cc(C2CC2)nc2ccc(Br)cc12)N1N=C(C(F)F)CC1(O)C(F)F` (stereo not drawn): the cell number change is -57.6%. The AC50 under setting [1] was 16.4 µM [falling, single point]. Also, the AC50 under setting [2] was 16.4 µM [falling, single point]. On to `Cc1ccccc1C(C(=O)NC1CCCC1)N(C(=O)CNC(=O)c1ccco1)c1cccnc1` (stereo not drawn), for which the cell number change turned out to be 10.9%. Moreover, the AC50 under setting [2] is 1.16 µM [rising, full curve, poor fit].

With `Cc1ccc(-n2nc3c(c2NC(=O)c2c(-c4ccccc4Cl)noc2C)CSC3)cc1`, the cell number change stood at 10%. For `COc1ccc(N(CC(=O)NC2CCCCC2)S(=O)(=O)c2c(C)[nH]c(=O)[nH]c2=O)cc1`, the AC50 under setting [1] is 0.58 µM [rising, single point] and the AC50 under setting [2] was 2.91 µM [rising, single point]. Regarding `CCSC1=NSC2=NC(=O)/C(=C\c3coc4ccccc4c3=O)C(=N)N12`, the cell number change was -7.45%. Also, the AC50 under setting [1] is 6.51 µM [falling, single point]. In addition, the AC50 under setting [2] was 7.31 µM [falling, partial curve]. For `COc1cccc(C(=O)Oc2ccccc2/C=C\C(=O)c2cc3ccccc3o2)c1`, the cell number change was -10.6%. Also, the half-maximal activity concentration (AC50) under setting [2] was 2.06 µM [falling, full curve].

As for `Cc1cc(NC(=O)COc2ccccc2)ccc1Cl`, the cell number change was -4.46%. For the compound `COCCNC(=O)Cn1c(=O)n(C)c2ccccc21`, the cell number change was -18.2%. The AC50 under setting [2] was 0.206 µM [falling, full curve]. On to `CC(NC(=O)CN1C(=O)NC2(CCCCCC2)C1=O)c1ccccc1` (stereo not drawn), for which the cell number change is 21.7%. Further, the AC50 under setting [1] was 6.51 µM [falling, single point]. Besides, the AC50 under setting [2] was 6.51 µM [falling, partial curve, poor fit]. Take `CC(C)(C)C1=CC(O)(c2ccccc2)C=C(C(C)(C)C)C1=O`: the cell number change was -52.8%. Further, the AC50 under setting [1] was 14.6 µM [falling, single point]. The AC50 under setting [2] is 20.6 µM [falling, partial curve]. Regarding `OC[C@H]1O[C@@H](n2cnc3c(Nc4ccccc4)ncnc32)[C@H](O)[C@@H]1O`, the cell number change was determined as 38.8%. The AC50 under setting [1] was 29.1 µM [rising, single point]. For the same compound, the AC50 under setting [2] was 29.1 µM [rising, single point].

Consider `COc1ccc(CNC(=O)C(C)OC(=O)c2cccs2)cc1` (stereo not drawn), for which the cell number change is -13.5%. For the same compound, the AC50 under setting [1] is 2.91 µM [falling, partial curve]. Take `CCc1ccc(N2NC(=O)/C(=C/C=C/c3ccco3)C2=O)cc1`: the cell number change was -38%. Moreover, the AC50 under setting [1] was 11.6 µM [falling, partial curve, poor fit]. Moreover, the AC50 under setting [2] is 11.6 µM [falling, partial curve, poor fit]. Turning to `CCn1nc(C)c(CN2CCC(n3nccc3NC(=O)c3ccc4c(c3)OCO4)CC2)c1C`, the cell number change was found to be 14.9%. Also, the AC50 under setting [2] was 0.1 µM [rising, full curve, poor fit]. For the compound `CCOc1nc(C)nc(NC(=O)NS(=O)(=O)c2ccccc2Cl)n1`, the cell number change amounted to 20.4%. Besides, under setting [2], the AC50 is 29.1 µM [falling, single point].

In the case of `COc1ccc(CCNC(=S)NCCc2c[nH]c3ccccc23)cc1`, the cell number change turned out to be 58.9%. The AC50 under setting [1] was 13 µM [rising, partial curve, poor fit].

In the case of `O=c1c2ccccc2nc2n1C(CSCc1ccc(Cl)cc1Cl)CS2` (stereo not drawn), the cell number change was -9.59%. Besides, the AC50 under setting [2] is 6.51 µM [rising, single point]. Regarding `COc1ccc(C2NC(=O)N(C)C3=C2C(=O)CC(C)(C)C3)cc1OC` (stereo not drawn), the cell number change is 4.23%. With `CCOc1ccc(Cl)cc1/C=N/NC(=O)CNC(=O)c1ccccc1`, the cell number change came to 28.6%. Under setting [2], the concentration at half-maximal activity (AC50) is 1.46 µM [rising, full curve].

`Cc1cc(C)nc(NC(=NCCc2c[nH]c3ccccc23)NC(=O)Nc2cccc([N+](=O)[O-])c2)n1`: the cell number change was -5.46%. Also, the AC50 under setting [1] is 1.64 µM [falling, partial curve]. In addition, the AC50 under setting [2] was 0.0058 µM [falling, full curve, poor fit]. Turning to `CN(Cc1ccccc1NCC(=O)Nc1ccccc1C#N)C1CCCCC1`, the cell number change was found to be 51.6%. Further, the AC50 under setting [1] was 23.1 µM [rising, single point]. Besides, the AC50 under setting [2] was 29.1 µM [rising, single point]. Turning to `CCCN(CC(=O)Nc1ccccc1C)C(=O)c1oc2ccc(OCC)cc2c1C`, the cell number change was determined as 20.4%. For the same compound, the AC50 under setting [1] is 0.116 µM [rising, full curve, poor fit]. Besides, the AC50 under setting [2] was 0.092 µM [rising, full curve, poor fit]. As to `CCc1cccc(CC)c1NC(=O)C1CCN(C(=O)c2ccco2)CC1`, the cell number change stood at 19.2%.

On to `N/C(=N\N=C\c1ccc([N+](=O)[O-])cc1)c1nonc1N`, for which the cell number change came out at 36%. Besides, under setting [1], the AC50 was 0.651 µM [rising, partial curve]. Besides, the AC50 under setting [2] was 0.116 µM [rising, full curve]. As to `COc1ccc(NC(=O)COn2nnc3ccc(Cl)cc32)cc1OC`, the cell number change is 68.6%. For the same compound, the AC50 under setting [1] is 29.1 µM [rising, single point]. For the same compound, the AC50 under setting [2] is 29.1 µM [rising, single point].

Regarding `CN(C)CCN(C(=O)c1ccc2ccccc2c1)c1nc2cc3c(cc2s1)OCCO3`, the cell number change was 32.3%. Besides, the AC50 under setting [1] is 1.03 µM [rising, full curve, poor fit]. Also, the AC50 under setting [2] was 0.82 µM [rising, full curve, poor fit]. Regarding `O=C(NCCCN1CCOCC1)c1cn(-c2ccccc2)nc1-c1cccs1`, the cell number change turned out to be 2.81%. Turning to `C/C(=N\NS(=O)(=O)c1ccc(Br)cc1)c1ccncc1`, the cell number change was determined as 16.2%. Under setting [2], the AC50 is 29.1 µM [rising, single point]. For `CCN(CC(=O)Nc1ccc(NC(C)=O)cc1)CC(=O)Nc1ccc(F)c(Cl)c1`, the AC50 under setting [2] was 0.411 µM [falling, single point].

Consider `CC1CCCCN1CCCNC(=O)CCCN1C(=O)c2cccnc2Sc2ccccc21` (stereo not drawn), for which the cell number change came out at 23.6%. Also, the AC50 under setting [1] is 2.31 µM [rising, full curve, poor fit].

`Cc1cc(NC(=O)c2cnn3c(C(F)F)cc(-c4ccccc4)nc23)no1`: the cell number change was 3.63%. As to `CC(NC(=O)C1CCN(C(=O)c2cccs2)CC1)c1ccc(S(N)(=O)=O)cc1` (stereo not drawn), the cell number change was 5.76%.

As to `COc1ccc(C(C(=O)NC(C)(C)C)N(C(=O)CCC(=O)Nc2cc(C)on2)c2cc(C)cc(C)c2)cc1` (stereo not drawn), the cell number change is 7.83%. On to `COC(=O)C1=C(N)Oc2cc(C)[nH]c(=O)c2C1c1ccccc1OC` (stereo not drawn), for which the cell number change worked out at 25.1%. In the case of `OCCNCCNCc1ccccc1OCc1ccccc1`, the cell number change is 156%.

Turning to `Cc1nn(Cc2cccc(Oc3ccccc3)c2)c(C)c1NC(=O)NC12CC3CC(CC(C3)C1)C2`, the cell number change is -33.4%. Under setting [1], the AC50 is 2.59 µM [falling, full curve, poor fit]. The AC50 under setting [2] is 2.31 µM [falling, full curve, poor fit]. Take `CCOc1ccc(NC(=O)C2CCCN(S(=O)(=O)c3ccc(-n4cnnn4)cc3)C2)cc1` (stereo not drawn): the cell number change is -39.7%. Under setting [1], the AC50 is 6.51 µM [falling, full curve, poor fit]. For `CCCc1cc(=O)[nH]c(SCC)n1`, the cell number change was -24.7%. Also, the AC50 under setting [2] is 14.6 µM [falling, partial curve]. As for `COCC(C)n1c(SC(C)C(=O)NC2CCCCC2C)nc2ccccc2c1=O` (stereo not drawn), the cell number change amounted to 28.4%. The AC50 under setting [2] is 25.9 µM [rising, partial curve, poor fit].

On to `CN(Cc1ccc(F)cc1)C(=O)CNC(=O)c1ccc2c(c1)OCO2`, for which the cell number change is -12.6%. For the same compound, under setting [2], the AC50 was 5.8 µM [falling, partial curve]. `COC(=O)/C(=C/c1ccco1)NC(=O)c1ccccc1`: the cell number change was found to be 23.9%. The AC50 under setting [2] is 0.291 µM [rising, full curve, poor fit]. With `O=C(Cc1ccc2c(c1)OCCO2)N1CCN(S(=O)(=O)c2cccs2)CC1`, the cell number change is 16.6%. As for `COc1ccc(N=c2oc3c(OC)cccc3cc2C(=O)NCc2ccco2)c(OC)c1`, the cell number change was -4.41%. Under setting [2], the AC50 was 18.4 µM [rising, single point]. As to `CCN1CCCC1CNCc1cccc(OC)c1OCc1ccccc1F` (stereo not drawn), the cell number change came to 6.72%. For the same compound, the AC50 under setting [2] was 29.1 µM [falling, partial curve]. As for `COc1ccc([C@H]2CC(=O)C=C(c3cc(F)ccc3F)C2)cc1OC`, the cell number change is -10.2%. In addition, the AC50 under setting [2] was 16.4 µM [falling, single point]. For the compound `CCn1cnc2c(Nc3cc(F)cc(F)c3)nc(C#N)nc21`, under setting [2], the AC50 is 5.17 µM [falling, single point].

Regarding `COc1ccc(C2=NS(=O)(=O)N(C)C(C(=O)NC(C)c3ccccc3)=C2)cc1` (stereo not drawn), the cell number change is 0.865%. On to `CCC(C)(C)n1nnnc1CN(Cc1cccs1)Cc1cc2cc(OC)ccc2[nH]c1=O`, for which the cell number change is -28.3%. The AC50 under setting [2] is 1.16 µM [rising, full curve]. Take `COc1cc(CNc2ccc(CNc3ncn[nH]3)cc2)ccc1OCC(=O)NC(C)(C)C`: the cell number change worked out at 47.5%. Besides, the AC50 under setting [1] was 7.31 µM [rising, partial curve, poor fit]. Also, under setting [2], the AC50 is 2.91 µM [rising, full curve]. As for `CCC(=O)Nc1ccc(NC(=O)CSc2nnnn2C2CCCC2)cc1C`, the cell number change is -2.82%. As for `COc1ccccc1CNC(=O)c1cn(C)c(=O)c2cc(OC)c(OC)cc12`, the cell number change is -3.98%.

With `CC(=O)Nc1ccc(NC(=O)COc2ccc(-c3ccccc3)cc2)cc1`, the cell number change stood at 9.35%. On to `Cc1ccccc1C(=O)Nc1ccc(Br)c(C)n1`, for which the cell number change is -18.1%.

As for `Oc1oc(-c2ccccc2)nc1C=Nc1cccc2ccccc12`, under setting [2], the AC50 is 6.51 µM [rising, single point].
